Results are given in words; binding and its absence hold for the method and conditions named. Binding seen in cells or lysates may run through a third protein. Some results given as binding are weak or reduced against the parent protein; the word gives no strength. Sequences can lack the tags named with a protein.
Target: T1, FLAG-tagged RIG-I (UniProt O95786)
T1 sequence: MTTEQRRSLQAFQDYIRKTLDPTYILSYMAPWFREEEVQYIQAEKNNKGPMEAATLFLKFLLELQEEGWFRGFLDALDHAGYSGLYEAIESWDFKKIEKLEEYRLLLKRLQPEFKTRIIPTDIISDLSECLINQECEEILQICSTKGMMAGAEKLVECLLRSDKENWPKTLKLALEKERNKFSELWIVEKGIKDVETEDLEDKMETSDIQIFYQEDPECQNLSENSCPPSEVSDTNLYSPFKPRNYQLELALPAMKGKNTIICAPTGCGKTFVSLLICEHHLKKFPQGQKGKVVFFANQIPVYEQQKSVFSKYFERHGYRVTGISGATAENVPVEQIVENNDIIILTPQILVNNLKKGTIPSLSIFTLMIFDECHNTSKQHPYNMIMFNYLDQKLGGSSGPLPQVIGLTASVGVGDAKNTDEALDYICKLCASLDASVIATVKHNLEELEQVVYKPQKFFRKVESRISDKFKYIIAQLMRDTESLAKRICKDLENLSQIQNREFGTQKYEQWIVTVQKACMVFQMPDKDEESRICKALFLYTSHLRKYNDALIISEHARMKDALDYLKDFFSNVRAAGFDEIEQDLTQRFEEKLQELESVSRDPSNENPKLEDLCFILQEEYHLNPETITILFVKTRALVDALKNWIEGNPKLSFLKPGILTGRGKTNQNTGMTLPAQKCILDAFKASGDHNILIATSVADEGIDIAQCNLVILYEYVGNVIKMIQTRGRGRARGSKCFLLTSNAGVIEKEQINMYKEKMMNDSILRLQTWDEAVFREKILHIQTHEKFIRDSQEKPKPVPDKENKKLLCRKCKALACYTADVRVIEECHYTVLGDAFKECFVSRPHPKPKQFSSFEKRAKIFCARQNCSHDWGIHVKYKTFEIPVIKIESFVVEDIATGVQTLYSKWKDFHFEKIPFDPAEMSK
Assay: co-IP

B1: WRNIP1 (WRN interacting protein 1) (protein, UniProt Q96S55-1 1-665)
chain: MEVSGPEDDPFLSQLHQVQCPVCQQMMPAAHINSHLDRCLLLHPAGHAEPAAGSHRAGERAKGPSPPGAKRRRLSESSALKQPATPTAAESSEGEGEEGDDGGETESRESYDAPPTPSGARLIPDFPVARSSSPGRKGSGKRPAAAAAAGSASPRSWDEAEAQEEEEAVGDGDGDGDADADGEDDPGHWDADAAEAATAFGASGGGRPHPRALAAEEIRQMLQGKPLADTMRPDTLQDYFGQSKAVGQDTLLRSLLETNEIPSLILWGPPGCGKTTLAHIIASNSKKHSIRFVTLSATNAKTNDVRDVIKQAQNEKSFFKRKTILFIDEIHRFNKSQQDTFLPHVECGTITLIGATTENPSFQVNAALLSRCRVIVLEKLPVEAMVTILMRAINSLGIHVLDSSRPTDPLSHSSNSSSEPAMFIEDKAVDTLAYLSDGDARAGLNGLQLAVLARLSSRKMFCKKSGQSYSPSRVLITENDVKEGLQRSHILYDRAGEEHYNCISALHKSMRGSDQNASLYWLARMLEGGEDPLYVARRLVRFASEDIGLADPSALTQAVAAYQGCHFIGMPECEVLLAQCVVYFARAPKSIEVYSAYNNVKACLRNHQGPLPPVPLHLRNAPTRLMKDLGYGKGYKYNPMYSEPVDQEYLPEELRGVDFFKQRRC
  binding: binds

— publication doi:10.1101/2023.10.03.560559
